Source: patent US20050222012A1
No constants are given. Whether binding was seen depends on the method and setting. Binding seen in cells or lysates may run through a third protein. Some results given as binding are weak or reduced against the parent protein; the word gives no strength. Where a sequence is shown, tags or fusion partners need not be part of it.

T1: Biotinylated AF9, C-terminal 368 aa of human AF9 made by coupled in vitro transcription and translation (human) (UniProt P42568)
T1 sequence (chain, Biotinylated (positions not stated)): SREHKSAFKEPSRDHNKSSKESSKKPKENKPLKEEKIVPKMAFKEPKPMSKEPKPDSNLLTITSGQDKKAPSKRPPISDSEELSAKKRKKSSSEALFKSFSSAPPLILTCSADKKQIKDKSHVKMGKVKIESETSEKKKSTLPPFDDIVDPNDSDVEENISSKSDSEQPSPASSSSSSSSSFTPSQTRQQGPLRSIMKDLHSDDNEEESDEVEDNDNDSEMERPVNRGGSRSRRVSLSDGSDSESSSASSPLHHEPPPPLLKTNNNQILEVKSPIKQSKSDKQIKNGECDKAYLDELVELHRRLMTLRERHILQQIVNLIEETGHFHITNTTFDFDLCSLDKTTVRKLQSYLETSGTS

B1: glutathione-S-transferase (GST) fused to amino acids 202-362 of MPc3 (protein, not shown: a dimerising Fc or GST)
chain: RKLDETSSGTGKFPAGHSVIQLARRQDSDLVQYGVTSPSSAEASSKLAVDTFPARVIKHRAAFLEAKGQGALDPGGARVRHSSGTPASVGSLYRDMGAQGGRPSLIARIPVARILGDPEEESWSPSLTNLEKVVVTDVTSNFLTVTIKESNTDQGFFKEKR
B2: glutathione-S-transferase (GST) fused to amino acids 925-1759 of mBCoR (protein, not shown: a dimerising Fc or GST)
chain: DPKPFCVGGAPPNMDVTPAYTKEGTDEAESNDGKVLKPKPSKLAKRIANSAGYVGDRFKCVTTELYADSSQLSREQRALQMEGLQEDSILCLPAAYCERAMMRFSELEMKEREGSHPATKDSEVCKFSPADWERLKGNQEKKPKSVTLEEAIADQNDSERCEYSTGNKHDLFEAPEDKDLPVEKYFLERPPVSEPPSDQGVVDTPHSPTLRLDRKRKLSGDSTHTETAVEELAEDPLKAKRRRISKDDWPEREMTNSSSNHLEDPHCNELTNLKVCIELTGLHPKKQRHLLHLRERWEQQVSAAESKPGRQSRKEVAQAVQPEVTSQGTNITEEKPGRKKAEAKGNRGWSEESLKSCDNEQGLPVLSGSPPMKSLSSTNASGKKQTQPSCTPASRLPAKQQKIKESQKTDVLCTGEDEDCQAASPLQKYTDNIEKPSGKRLCKTKHLIPQESRRSLQITGDYYVENTDTKMTVRRFRKRPEPSSDYDLSPPAKQEPKPFGRLQQLLPATQATQLPRSNSPQETTQSRPMPPEARRLIVNKNAGETLLQRAARLGYEEVVLYCLENKVCDVNHRDNAGYCALHEACARGWLNIVRHLLEYGADVNCSAQDGTRPLHDAVENDHLEIVRLLLSYGADPTLATYSGRTIMKMTHSELMEKFLTDYLNDLQGRSEDDTSGAWEFYGSSVCEPDDESGYDVLANPPGPEDPDEEEDTYSDLFEFEFAESSLLPCYNIQVSVAQGPRNWLLLSDVLKKLKMSSRIFRSNFPNLEIVTIAEAEFYRQVSTSLLFSCPKDLEAFNPESKELLDLVEFTNELQTLLGSSVEWLHPSDTGHENYW

Experiments:
[1] = molecular target: T1, Biotinylated AF9, C-terminal 368 aa of human AF9 made by coupled in vitro transcription and translation (human); assay: GST pull-down, biotinylated AF9 on immobilized GST-MPc3(202-362)
[2] = molecular target: T1, Biotinylated AF9, C-terminal 368 aa of human AF9 made by coupled in vitro transcription and translation (human); assay: GST pull-down, biotinylated AF9 on immobilized GST-mBCoR(925-1759)

Row | Binder | binding [1] | binding [2]
1 | B1 | binds | –
2 | B2 | – | binds
